Reference: paper PMC11183095
Results are given in words; binding and its absence hold for the method and conditions named. Binding seen in cells or lysates may run through a third protein. Here binding means that the protein was enriched with, or labelled near, the bait; the list need not be complete.

The chains behind the UniProt entries cited, without tags or fusion partners.
UniProt P14618: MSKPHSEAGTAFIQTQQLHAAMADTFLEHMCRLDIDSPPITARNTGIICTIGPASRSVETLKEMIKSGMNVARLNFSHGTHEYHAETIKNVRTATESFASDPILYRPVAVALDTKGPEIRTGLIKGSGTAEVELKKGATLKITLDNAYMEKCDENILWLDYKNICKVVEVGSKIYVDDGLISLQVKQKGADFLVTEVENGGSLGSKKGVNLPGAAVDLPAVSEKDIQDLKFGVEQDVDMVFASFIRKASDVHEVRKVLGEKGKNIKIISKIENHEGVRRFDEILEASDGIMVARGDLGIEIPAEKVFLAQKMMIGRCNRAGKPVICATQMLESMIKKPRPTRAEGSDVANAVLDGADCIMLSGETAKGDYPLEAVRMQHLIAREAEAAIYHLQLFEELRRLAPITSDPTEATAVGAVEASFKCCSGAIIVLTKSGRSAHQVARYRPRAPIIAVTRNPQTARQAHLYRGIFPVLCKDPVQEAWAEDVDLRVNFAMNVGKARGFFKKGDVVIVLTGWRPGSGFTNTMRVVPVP
UniProt P18669: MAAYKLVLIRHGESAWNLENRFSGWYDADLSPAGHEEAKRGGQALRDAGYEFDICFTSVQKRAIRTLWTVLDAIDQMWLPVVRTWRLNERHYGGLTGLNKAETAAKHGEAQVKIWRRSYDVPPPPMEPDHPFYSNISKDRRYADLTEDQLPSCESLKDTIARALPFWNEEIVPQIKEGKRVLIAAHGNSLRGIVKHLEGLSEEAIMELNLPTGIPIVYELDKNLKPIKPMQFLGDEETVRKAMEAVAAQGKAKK

Biological target: Pyruvate kinase M2 (PKM2), endogenous (human (endogenous in A549)) (UniProt P14618)
Test: affinity purification with mass spectrometry; anti-PKM2 immunoprecipitation from A549 treated with or without TEPP46 (50 μM, 24 h); in-gel digestion, LC-MS/MS

binding: binds
Substance: Phosphoglycerate mutase 1 (PGAM1), endogenous (from UniProt P18669 1-254) (enzyme)
